Experimental data reported in article doi:10.1101/2021.01.14.426760.
These are yes or no findings as the source states them, for the method shown. In cells and extracts the contact can be indirect. Binding calls can cover weak binding; strength is not graded here. Sequences can lack the tags named with a protein.

Target: GST-Fos (Kay) (Drosophila)
Assay: pull-down

B1: His-EcR (Ecdysone receptor) (receptor, UniProt P34021 1-878)
chain: MKRRWSNNGGFMRLPEESSSEVTSSSNGLVLPSGVNMSPSSLDSHDYCDQDLWLCGNESGSFGGSNGHGLSQQQQSVITLAMHGCSSTLPAQTTIIPINGNANGNGGSTNGQYVPGATNLGALANGMLNGGFNGMQQQIQNGHGLINSTTPSTPTTPLHLQQNLGGAGGGGIGGMGILHHANGTPNGLIGVVGGGGGVGLGVGGGGVGGLGMQHTPRSDSVNSISSGRDDLSPSSSLNGYSANESCDAKKSKKGPAPRVQEELCLVCGDRASGYHYNALTCEGCKGFFRRSVTKSAVYCCKFGRACEMDMYMRRKCQECRLKKCLAVGMRPECVVPENQCAMKRREKKAQKEKDKMTTSPSSQHGGNGSLASGGGQDFVKKEILDLMTCEPPQHATIPLLPDEILAKCQARNIPSLTYNQLAVIYKLIWYQDGYEQPSEEDLRRIMSQPDENESQTDVSFRHITEITILTVQLIVEFAKGLPAFTKIPQEDQITLLKACSSEVMMLRMARRYDHSSDSIFFANNRSYTRDSYKMAGMADNIEDLLHFCRQMFSMKVDNVEYALLTAIVIFSDRPGLEKAQLVEAIQSYYIDTLRIYILNRHCGDSMSLVFYAKLLSILTELRTLGNQNAEMCFSLKLKNRKLPKFLEEIWDVHAIPPSVQSHLQITQEENERLERAERMRASVGGAITAGIDCDSASTSAAAAAAQHQPQPQPQPQPSSLTQNDSQHQTQPQLQPQLPPQLQGQLQPQLQPQLQTQLQPQIQPQPQLLPVSAPVPASVTAPGSLSAVSTSSEYMGGSAAIGPITPATTSSITAAVTASSTTSAVPMGNGVGVGVGVGGNVSMYANAQTAMALMGVALHSHQEQLIGGVAVKSEHSTTA
binding: binds
